Assay results reported in PubChem BioAssay AID540276 (National Center for Advancing Translational Sciences (NCATS), 2011).
Several values for one entry are separate records, joined by “and”; a condition that tells them apart may be missing. Equal entries are not always repeated. Hit rate of the full screen: of about 300,000 compounds, about 5,400 (1.8%) were called active. This list was built around the results that the source calls inconclusive (neither active nor inactive); the mix of calls is not that of the screen. Calls follow the shape of the full dose curve; tested in HEK293 cells. Where the call is inconclusive, the potency comes from a doubtful curve fit.

test: qHTS for inhibitors of binding or entry into cells for Marburg Virus; conditions: Marburg virus pseudotyped entry inhibition, cell reporter; activity change, negative = inhibition: at 37.8 µM (top of the series) unless noted
% is scaled to controls: 0 for no effect and ±100 for the full control effect; potency is read from the fitted curve at half-maximal effect.

Question: For `Cc1ccc(-c2n[nH]c(=S)n2-c2ccccc2)cc1`, which “activity change, negative = inhibition” value is on record?
Answer: inactive: 5.19%

Question: With `COc1ccc(CCn2ccc(O)c(Cc3ccc(Cl)cc3Cl)c2=O)cc1OC` as the compound, how does the Potency read?
Answer: active: 3.98 µM

Question: Which Potency does the source give for `OCCN1CCN(Cc2cccc(Oc3ccc(Cl)cc3)c2)CC1` here?
Answer: inconclusive: 25.9 µM [inhibitor, single point]

Question: With `Cc1cc(=O)oc2cc(OCC(=O)OCC(=O)NC3CC3)ccc12` as the compound, how does the Potency read?
Answer: inconclusive: 2.51 µM [inhibitor, full curve, poor fit]

Question: Which Potency does the source give for `Cc1nc(N2CCOCC2)nc2c1CCC2` here?
Answer: inconclusive: 0.562 µM [activator, full curve, poor fit]

Question: For `CCCNC(=O)CCC(NS(=O)(=O)c1ccc(C)cc1)C(=O)NCCC` (configuration not stated), which Potency is on record?
Answer: inconclusive: 14.6 µM [inhibitor, partial curve, poor fit]

Question: With `CC1CCCC(C)N1C(=O)COC(=O)c1ccc2c(c1)OCO2` (configuration not stated) as the compound, how does the Potency read?
Answer: inconclusive: 14.1 µM [activator, single point]

Question: Which “activity change, negative = inhibition” value does the source give for `CCCn1c(SCC(=O)N2CCN(S(=O)(=O)c3ccc(Cl)cc3)CC2)n[nH]c1=O` here?
Answer: inactive: -8.05% [at 46.1 µM]

Question: For `CCN(CC)c1ccc(NC(=O)CCc2c(C)nc3ncnn3c2C)c(C)c1`, which “activity change, negative = inhibition” value is on record?
Answer: inactive: 3.16% [at 46.1 µM]

Question: With `OCCCCCN=c1cc(-c2ccccc2)oc2ccc(Cl)cc12` as the compound, how does the Potency read?
Answer: inconclusive: 35.5 µM [inhibitor, single point]

Question: For `COc1ccc(NS(=O)(=O)c2ccc3c(c2)[C@H]2C=CC[C@H]2[C@@H](c2ccc(C(=O)O)cc2)N3)cc1`, which Potency is on record?
Answer: inconclusive: 25.1 µM [inhibitor, partial curve, poor fit] and inconclusive: 1.12 µM [inhibitor, full curve, poor fit]

Question: With `O=C1C=C(NCc2ccccc2)c2ccccc2C1=O` as the compound, how does the Potency read?
Answer: inconclusive: 35.5 µM [inhibitor, single point]

Question: Which Potency does the source give for `Cc1ccc(CN2C(=O)CCC2C(=O)NCCN2CCN(c3cccc(Cl)c3)CC2)cc1` (configuration not stated) here?
Answer: inconclusive: 17.8 µM [inhibitor, single point]

Question: Which “activity change, negative = inhibition” value does the source give for `CCOc1ccc(NC(=O)[C@@H](c2ccccc2)N2Cc3ccccc3C2=O)cc1` here?
Answer: inactive: 2.59% [at 46.1 µM]

Question: Which Potency does the source give for `Cc1ccccc1C(=O)N1CCN(c2ccc(NC(=O)CSc3ccc(Cl)cc3)cc2)CC1` here?
Answer: active: 11.2 µM

Question: With `Cc1ccc(C(=O)N(NC2=NS(=O)(=O)c3ccccc32)S(=O)(=O)c2ccc(C)cc2)cc1` as the compound, how does the Potency read?
Answer: inconclusive: 0.282 µM [activator, full curve, poor fit]

Question: For `Cc1ccc(C(=O)OCC(=O)N2CCC(Cc3ccccc3)CC2)cc1N`, which Potency is on record?
Answer: inconclusive: 3.16 µM [activator, partial curve, poor fit]

Question: With `S=C(NCc1ccc(Cl)cc1)N1CCN(c2ccccn2)CC1` as the compound, how does the Potency read?
Answer: inconclusive: 5.62 µM [activator, single point]

Question: For `CCCS(=O)(=O)c1c(S(=O)(=O)CCC)c2cc(-c3ccncc3)ccn2c1C(=O)OC`, which Potency is on record?
Answer: active: 5.62 µM

Question: Which “activity change, negative = inhibition” value does the source give for `O=C(c1nn2c(C(F)(F)F)cc(-c3cccs3)nc2c1Br)N1CCCc2ccccc21` here?
Answer: inactive: 17%

Question: For `C=CS(=O)(=O)c1c2cc(OC)ccc2nc2ccc(OC)cc12`, which Potency is on record?
Answer: inconclusive: 22.4 µM [inhibitor, single point]

Question: With `COc1ccc(C(C)C)cc1S(=O)(=O)n1cnc(C)c1` as the compound, how does the Potency read?
Answer: inconclusive: 23.1 µM [inhibitor, single point]

Question: For `O=C(CN(C(=O)c1csnn1)c1ccc2c(c1)OCCO2)NCc1ccc(F)cc1`, which Potency is on record?
Answer: inconclusive: 11.2 µM [activator, partial curve, poor fit]

Question: With `CCOc1ccc(N2CC(O)(c3cccs3)[N+]3=C2CCCC3)cc1` (configuration not stated) as the compound, how does the Potency read?
Answer: active: 5.62 µM

Question: For `CCOC(=O)c1c(C)[nH]c(C(=O)N/N=C/c2ccc(Br)cc2)c1C`, which Potency is on record?
Answer: active: 2.82 µM

Question: For `COc1ccc(CCNC(=O)C(=O)NCC2CCCN2S(=O)(=O)c2ccc(OC)cc2)cc1` (configuration not stated), which Potency is on record?
Answer: inconclusive: 7.94 µM [inhibitor, partial curve, poor fit]

Question: For `CCn1cc(CN2CCN(Cc3ccc(C)o3)C(CCO)C2)c2ccccc21` (configuration not stated), which Potency is on record?
Answer: inconclusive: 20 µM [inhibitor, partial curve, poor fit]

Question: Which Potency does the source give for `CCc1ccc(N(C(=O)C(F)(F)F)C(C(=O)NC2CCCCC2)c2ccncc2)cc1` (configuration not stated) here?
Answer: inconclusive: 2.06 µM [inhibitor, partial curve, poor fit]

Question: Which “activity change, negative = inhibition” value does the source give for `COc1cc(N)c(Cl)cc1C(=O)OCC(=O)N1c2ccccc2NC(=O)C1(C)C` here?
Answer: inactive: -29.2% [at 46.1 µM]

Question: With `COc1cc2c(C(=O)N3CCN(c4cccc(Cl)c4)CC3)cn(CC(C)C)c(=O)c2cc1OC` as the compound, how does the Potency read?
Answer: inconclusive: 0.517 µM [inhibitor, partial curve, poor fit]

Question: With `O=C1CC(NS(=O)(=O)c2ccccc2)CN1c1ccc2c(c1)OCCO2` (configuration not stated) as the compound, how does the “activity change, negative = inhibition” value read?
Answer: inactive: 10.2%

Question: Which “activity change, negative = inhibition” value does the source give for `CCC(=O)Oc1ccc2c(c1)O/C(=C\c1ccco1)C2=O` here?
Answer: inactive: 9.49% [at 46.1 µM]

Question: For `O=C1CN(C(=O)Cc2ccccc2)C(c2ccc(F)cc2)c2cc(Br)ccc2N1` (configuration not stated), which Potency is on record?
Answer: active: 10 µM

Question: For `COc1cccc(N2C(=O)NC(=O)/C(=C/c3ccc([N+](=O)[O-])s3)C2=O)c1`, which “activity change, negative = inhibition” value is on record?
Answer: inactive: -3.03% [at 46.1 µM]

Question: Which Potency does the source give for `S=C(Nc1ccc(Nc2ccccc2)cc1)NC1CCCCCC1` here?
Answer: inconclusive: 10 µM [inhibitor, partial curve, poor fit]

Question: With `COCCNS(=O)(=O)c1cc2[nH]c3c(c2cc1C)C(=O)CC(C)(C)C3` as the compound, how does the Potency read?
Answer: inconclusive: 10 µM [inhibitor, partial curve, poor fit]

Question: For `O=C(c1ccc(Cl)c(S(=O)(=O)N2CCCCCC2)c1)N1CCN(c2ccccc2O)CC1`, which Potency is on record?
Answer: inconclusive: 10 µM [inhibitor, partial curve, poor fit]

Question: With `CSc1cccc(NC(=O)/C=C/c2ccccc2)c1` as the compound, how does the Potency read?
Answer: inconclusive: 29.1 µM [inhibitor, single point]

Question: Which “activity change, negative = inhibition” value does the source give for `COC(=O)Cc1ccc(NC(=O)c2cccs2)cc1` here?
Answer: inactive: 0.41% [at 46.1 µM]

Question: Which Potency does the source give for `CCOC(=O)c1c(C)[nH]c(O)c1C=Nc1ccc(C(F)(F)F)cc1` here?
Answer: inconclusive: 29.1 µM [inhibitor, partial curve, poor fit]

Question: With `COc1ccccc1C1N(c2ccc(Cl)cc2)C(=O)C2CCCN21` (configuration not stated) as the compound, how does the Potency read?
Answer: active: 4.61 µM

Question: For `COc1cccc(NC(=O)Cn2c(=O)n(-c3cc(OC)c(OC)c(OC)c3)c(=O)c3ccccc32)c1`, which “activity change, negative = inhibition” value is on record?
Answer: inactive: -2.74% [at 46.1 µM]

Question: For `CC1=N/C(=C\c2ccc([N+](=O)[O-])cc2)C(=O)N1c1ccc(F)cc1F`, which Potency is on record?
Answer: inconclusive: 5.62 µM [inhibitor, single point]

Question: For `COc1ccc(CCNC(=O)CCn2c(SCC#N)nc3ccccc3c2=O)cc1OC`, which Potency is on record?
Answer: inconclusive: 18.3 µM [inhibitor, single point]

Question: For `Cc1ccc(C(=O)NC(=S)NCCCN2CCOCC2)cc1`, which Potency is on record?
Answer: inconclusive: 0.794 µM [activator, full curve, poor fit]

Question: For `Cc1cc(NCCCn2ccnc2)n2c(nc3ccccc32)c1C#N`, which Potency is on record?
Answer: inconclusive: 7.94 µM [activator, partial curve, poor fit]

Question: Which “activity change, negative = inhibition” value does the source give for `CC(=O)Nc1nonc1-n1nnc(C(=O)NCc2ccccc2)c1C` here?
Answer: inactive: -0.118%

Question: For `Cc1ccc(NC(=O)NCc2cccn2C)cc1C`, which Potency is on record?
Answer: inconclusive: 4.47 µM [activator, full curve, poor fit]

Question: With `Cc1cccc(CC(=O)N2CC(=O)Nc3ccc(C)cc3C2c2ccc(F)cc2)c1` (configuration not stated) as the compound, how does the Potency read?
Answer: inconclusive: 35.5 µM [inhibitor, single point]

Question: Which Potency does the source give for `N#Cc1ccc(Sc2nc3ccccc3[nH]2)cc1C#N` here?
Answer: inconclusive: 29.1 µM [inhibitor, single point]

Question: Which “activity change, negative = inhibition” value does the source give for `COc1ccc(OC)c(NC(=O)c2cc(-c3cc(C)c(C)cc3O)n[nH]2)c1` here?
Answer: inactive: -6.51%

Question: With `S=C(NCc1cccs1)Nc1cccc(Cl)c1` as the compound, how does the “activity change, negative = inhibition” value read?
Answer: inactive: 1.35%

Question: With `CCOC(=O)N1CCN(C(=O)CSc2nnc(-c3ccc(C(C)(C)C)cc3)o2)CC1` as the compound, how does the Potency read?
Answer: inconclusive: 2.91 µM [activator, full curve, poor fit]

Question: Which Potency does the source give for `Cc1nnc(-c2ccc(Oc3ccc(Br)cc3)c([N+](=O)[O-])c2)o1` here?
Answer: inconclusive: 0.282 µM [activator, full curve, poor fit]

Question: For `Nc1nonc1-c1nc2ccccc2n1Cc1ccccc1`, which Potency is on record?
Answer: inconclusive: 15.8 µM [inhibitor, single point]

Question: Which Potency does the source give for `COc1cccc(N(CC(=O)NC2CCCC2)C(=O)Cn2nnc(-c3ccc(C)cc3)n2)c1` here?
Answer: inconclusive: 0.92 µM [inhibitor, full curve, poor fit]

Question: For `NNc1ccc2c(C(F)(F)F)cc(C(F)(F)F)nc2n1`, which “activity change, negative = inhibition” value is on record?
Answer: inactive: -23.8% [at 46.1 µM]

Question: Which Potency does the source give for `COc1ccc(OCC(O)CNC(=O)c2ccc(OC)cc2)cc1` (configuration not stated) here?
Answer: inconclusive: 14.6 µM [activator, single point]

Question: With `CCCCN1C2CCC1CC(OC(c1ccc(F)cc1)c1ccc(F)cc1)C2` (configuration not stated) as the compound, how does the Potency read?
Answer: active: 3.55 µM

Question: For `N#Cc1cc(-c2ccccc2)nc(N2CCNCC2)n1`, which Potency is on record?
Answer: inconclusive: 6.31 µM [activator, single point]

Question: For `Cc1cccc(C(=O)Nc2ccccc2-c2nnn(CC(=O)Nc3ccc4c(c3)OCCO4)n2)c1`, which Potency is on record?
Answer: inconclusive: 2.06 µM [inhibitor, full curve]

Question: Which Potency does the source give for `CCC1(c2ccccc2)NC(=O)N(CC(=O)NNC(=O)c2ccc(F)cc2)C1=O` (configuration not stated) here?
Answer: inconclusive: 35.5 µM [activator, single point]

Question: For `O=[N+]([O-])c1cccc(N/N=C/c2cccc(O)c2O)c1`, which Potency is on record?
Answer: inconclusive: 35.5 µM [inhibitor, single point]

Question: Which Potency does the source give for `COc1ccc(N(Cc2cccs2)C(=O)COc2cccc(C)c2C)cc1` here?
Answer: inconclusive: 6.31 µM [inhibitor, partial curve]

Question: For `CCc1cc2c(-c3ccccc3)cc(=O)oc2cc1OCC(C)=O`, which Potency is on record?
Answer: inconclusive: 6.31 µM [inhibitor, single point]

Question: For `Cc1ccccc1OCCOc1ccccc1C=C(C#N)C#N`, which “activity change, negative = inhibition” value is on record?
Answer: inactive: -18.5%

Question: For `COC(=O)CC1Oc2ccc(F)cc2-n2cc(-c3ccc(C)cc3)nc21` (configuration not stated), which “activity change, negative = inhibition” value is on record?
Answer: inactive: -28.4% [at 46.1 µM]
